The text below walks through data of publication PMC2477742.

Construct, isoform or probe ends are uncertain for at least one entry. At least one result comes from cells or an extract, where the contact may be indirect. At least one verdict rests on a figure or table, not on a statement of the authors.

The data set relates to STAT1 (cytokine-activated, in STAT1/3 heterodimer) + STAT3 (IL-6-activated, phosphorylated). The experiment in a line: EMSA supershift. The following applies: NIH 3T3 nuclear extract, IL-6 30 min, complexes with STAT1, STAT3 or both supershifted or decreased; 13.3 mM Hepes pH 7.6, 0.7 mM EDTA, 3.3 mM MgCl2, 34 mM KCl, 1 mM DTT, 10% glycerol, 0.5 ug poly(dI-dC), on ice 15 min; 5% PAGE in 0.25x TBE; protein in an extract; label: 32P (alpha-32P dATP end-labelling). In general terms: In EMSA bound probe runs differently from free probe, usually more slowly.

For “GATCTAGGGATTTCCGGGAAATGAAGCT (double strand) [M67 (c-sis-inducible element probe)]”, the binding result is “binds”.
